Experimental data: patent US20120122948A1, “3-ALKYL-5-FLUOROINDOLE DERIVATIVES AS MYELOPEROXIDASE INHIBITORS” (UNIVERSITE LIBRE DE BEUXELLES, priority 2009, published 2012)
Structures can show the parent of a compound that is named as a salt. The name of at least one read-out is uncertain.

Molecular target: T1, MPO (Homo sapiens, UniProt P05164)
T1 construct: made in house
T1 sequence (P05164 49-745): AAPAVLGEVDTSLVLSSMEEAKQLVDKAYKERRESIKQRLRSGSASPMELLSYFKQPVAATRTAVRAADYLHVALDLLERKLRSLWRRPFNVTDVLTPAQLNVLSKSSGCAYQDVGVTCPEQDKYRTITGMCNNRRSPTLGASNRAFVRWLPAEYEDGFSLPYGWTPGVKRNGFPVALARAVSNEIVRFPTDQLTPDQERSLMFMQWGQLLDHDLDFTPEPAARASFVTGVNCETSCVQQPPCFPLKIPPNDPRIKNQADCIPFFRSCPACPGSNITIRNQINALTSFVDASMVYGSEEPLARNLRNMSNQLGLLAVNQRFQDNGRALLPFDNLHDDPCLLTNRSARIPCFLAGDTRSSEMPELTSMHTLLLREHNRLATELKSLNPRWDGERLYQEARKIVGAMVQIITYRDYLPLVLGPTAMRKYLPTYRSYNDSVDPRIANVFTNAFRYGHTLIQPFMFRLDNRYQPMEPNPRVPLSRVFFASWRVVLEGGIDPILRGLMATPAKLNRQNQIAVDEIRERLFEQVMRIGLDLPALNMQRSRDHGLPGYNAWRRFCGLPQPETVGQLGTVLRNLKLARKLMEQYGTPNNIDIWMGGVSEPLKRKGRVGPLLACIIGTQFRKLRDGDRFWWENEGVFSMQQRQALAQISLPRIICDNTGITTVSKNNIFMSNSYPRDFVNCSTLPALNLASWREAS
Test: Inhibition of LDL oxidation by MPO, ELISA with Mab AG9
Format: biochemical
Conditions: compound 1000 nM; MPO 1 μg/ml, LDL 1000 μg/ml, pH 7.2, 37° C., 5 min; mean of six measurements; oxalate
Description: Recombinant MPO was prepared as previously described. Each batch solution is characterized by its protein concentration (mg/ml), its activity (U/ml), and its specific activity (U/mg). The chlorination activity was determined according to Hewson and Hager. Human plasma served for the isolation of LDL by ultracentrifugation according to Havel et al. Before oxidation, the LDL fraction (1.019<d<1.067 g/ml) was desalted by two consecutive passages through PD10 gel-filtration columns (Amersham Biosciences, The Netherlands) using PBS buffer. The different steps were carried out in the dark and the protein concentration was measured by the Lowry assay for both MPO and LDL.
The LDL oxidation was carried out at 37° C. in a final volume of 500 μl. The reaction mixture contained the following reagents at the final concentrations indicated between brackets: pH 7.2, PBS buffer, MPO (1 μg/ml), LDL (1000 μg/ml), 2 μl HCl 1N (4 mM), a compound of formula (Ia) of the present invention (50, 100 and 1000 nM), and H2O2 (100 μM). The reaction was stopped after 5 min by cooling the tubes in ice. […] The measurement of the absorbance was performed at 405 nm with a background correction at 655 nm with a Bio-Rad photometer for a 96-well plate (Bio-Rad laboratories, CA, USA). Results were expressed as means of the percentage of LDL oxidation for six independent measurements.

## NCCCCc1c[nH]c2ccc(F)cc12 [Compound C, 3-(4-Aminobutyl)-5-fluoro-[1H]-indole oxalate]
  LDL oxidation (%): 6.16%
